The values that follow come from publication doi:10.1101/2021.01.18.427181.

The labels stand for the following.
B1: Toll-1 ectodomain SDM25 (Cys597, Cys635 and Cys637 to Ala) (domain or fragment, UniProt P08953 28-807)
chain: SFGRDACSEMSIDGLCQCAPIMSEYEIICPANAENPTFRLTIQPKDYVQIMCNLTDTTDYQQLPKKLRIGEVDRVQMRRCMLPGHTPIASILDYLGIVSPTTLIFESDNLGMNITRQHLDRLHGLKRFRFTTRRLTHIPANLLTDMRNLSHLELRANIEEMPSHLFDDLENLESIEFGSNKLRQMPRGIFGKMPKLKQLNLWSNQLHNLTKHDFEGATSVLGIDIHDNGIEQLPHDVFAHLTNVTDINLSANLFRSLPQGLFDHNKHLNEVRLMNNRVPLATLPSRLFANQPELQILRLRAELQSLPGDLFEHSTQITNISLGDNLLKTLPATLLEHQVNLLSLDLSNNRLTHLPDSLFAHTTNLTDLRLEDNLLTGISGDIFSNLGNLVTLVMSRNRLRTIDSRAFVSTNGLRHLHLDHNDIDLQQPLLDIMLQTQINSPFGYMHGLLTLNLRNNSIIFVYNDWKNTMLQLRELDLSYNNISSLGYEDLAFLSQNRLHVNMTHNKIRRIALPEDVHLGEGYNNNLVHVDLNDNPLVCDCTILWFIQLVRGVHKPQYSRQFKLRTDRLVASQPNVLEGTPVRQIEPQTLICPLDFSDDPRERKCPRGANAHVRTYDKALVINCHSGNLTHVPRLPNLHKNMQLMELHLENNTLLRLPSANTPGYESVTSLHLAGNNLTSIDVDQLPTNLTHLDISWNHLQMLNATVLGFLNRTMKWRSVKLSGNPWMCDCTAKPLLLFTQDNFERIGDRNEMMCVNAEMPTRMVELSTNDICPAEKGVFI
B2: Toll-1 ectodomain SDM 1 (Cys565 and Cys567 to Ala) (domain or fragment, UniProt P08953 28-807)
chain: B1 chain with C538A, C540A, A570C, A608C, A610C
B3: Toll-1 ectodomain SDM 4 (Cys631 to Ala) (domain or fragment, UniProt P08953 28-807)
chain: B1 chain with A570C, C604A, A608C, A610C
B4: Toll-1 ectodomain SDM 2 (Cys597 to Ala) (domain or fragment, UniProt P08953 28-807)
chain: B1 chain with A608C, A610C
B5: Toll-1 ectodomain SDM 5 (Cys635 and Cys637 to Ala) (domain or fragment, UniProt P08953 28-807)
chain: B1 chain with A570C
B6: Toll-1 ectodomain SDM125 (Cys565, Cys567, Cys597, Cys635 and Cys637 to Ala) (domain or fragment, UniProt P08953 28-807)
chain: B1 chain with C538A, C540A
B7: Toll-1 ectodomain SDM3 (Cys618 to Ala) (domain or fragment, UniProt P08953 28-807)
chain: B1 chain with A570C, C591A, A608C, A610C

Where a chain is given by its changes, count along the chain named. These are yes or no findings as the source states them, for the method shown. Binding can be weak; no strength is given.

In this experiment the target is Toll-9 ectodomain, wild type (etoll-9) (D. melanogaster). The experiment in a line: two-hybrid.
Regarding B1, the binding entry is reported as “binds”.

Consider B2, for which the binding entry is reported as “no binding”.

Take B3: the binding result is reported as “no binding”.

Take B4: the binding entry is “no binding”.

With B5, the binding entry is reported as “no binding”.

As to B6, the binding entry is on record as “no binding”.

As to B7, the binding entry is “no binding”.
